# The supplement of paper PMC8728848
# Some of the results follow.
# B1: CBP21 (Serratia marcescens), O83009 (protein)
# chain: MNKTSRTLLSLGLLSAAMFGVSQQANAHGYVESPASRAYQCKLQLNTQCGSVQYEPQSVEGLKGFPQAGPADGHIASADKSTFFELDQQTPTRWNKLNLKTGPNSFTWKLTARHSTTSWRYFITKPNWDASQPLTRASFDLTPFCQFNDGGAIPAAQVTHQCNIPADRSGSHVILAVWDIADTANAFYQAIDVNLSK
# Columns and labels:
# Assay in all cases: glycan array binding signal (z-score within array); higher = stronger binding
# Conditions in all cases: glycan notation: IUPAC condensed, linker removed
# Fuc(a1-2)Gal = target: Fuc(a1-2)Gal
# Summary of the method: (§1)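 The binding signal is a Z-score computed within each array and averaged over linkers. Arrays of the same protein sequence at different concentrations or buffers were also averaged together. Data originate from 3228 arrays in the Consortium for Functional Glycomics database, kept only where the protein sequence was available.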
# Fuc(a1-2)Gal(b1-3)GalNAc = target: Fuc(a1-2)Gal(b1-3)GalNAc
# Summary of the method: as §1
# [1] = target: Fuc(a1-2)Gal(b1-3)GalNAc(a1-3)[Fuc(a1-2)]Gal(b1-4)Glc
# Summary of the method: as §1
# [2] = target: Fuc(a1-2)Gal(b1-3)GalNAc(a1-3)[Fuc(a1-2)]Gal(b1-4)GlcNAc
# Summary of the method: as §1
# [3] = target: Fuc(a1-2)Gal(b1-3)GalNAc(b1-3)Gal
# Summary of the method: as §1
# [4] = target: Fuc(a1-2)Gal(b1-3)GalNAc(b1-3)Gal(a1-4)Gal(b1-4)Glc
# Summary of the method: as §1
# [5] = target: Fuc(a1-2)Gal(b1-3)GalNAc(b1-4)[Neu5Ac(a2-3)]Gal(b1-4)Glc
# Summary of the method: as §1
# Fuc(a1-2)Gal(b1-3)GlcNAc = target: Fuc(a1-2)Gal(b1-3)GlcNAc
# Summary of the method: as §1
# [6] = target: Fuc(a1-2)Gal(b1-3)GlcNAc(b1-2)Man(a1-3)[Fuc(a1-2)Gal(b1-3)GlcNAc(b1-2)Man(a1-6)]Man(b1-4)GlcNAc(b1-4)GlcNAc
# Summary of the method: as §1
# [7] = target: Fuc(a1-2)Gal(b1-3)GlcNAc(b1-2)Man(a1-3)[Fuc(a1-2)Gal(b1-3)GlcNAc(b1-2)Man(a1-6)]Man(b1-4)GlcNAc(b1-4)[Fuc(a1-6)]GlcNAc
# Summary of the method: as §1
# [8] = target: Fuc(a1-2)Gal(b1-3)GlcNAc(b1-3)Gal(b1-4)Glc
# Summary of the method: as §1
# [9] = target: Fuc(a1-2)Gal(b1-3)GlcNAc(b1-3)GalNAc
# Summary of the method: as §1
# [10] = target: Fuc(a1-2)Gal(b1-3)GlcNAc(b1-3)[Fuc(a1-2)Gal(b1-3)GlcNAc(b1-6)]GalNAc
# Summary of the method: as §1
# [11] = target: Fuc(a1-2)Gal(b1-3)GlcNAc(b1-3)[Gal(b1-4)GlcNAc(b1-6)]Gal(b1-4)Glc
# Summary of the method: as §1
# [12] = target: Fuc(a1-2)Gal(b1-3)GlcNAc(b1-3)[Neu5Ac(a2-6)Gal(b1-4)GlcNAc(b1-6)]Gal(b1-4)Glc
# Summary of the method: as §1
# [13] = target: Fuc(a1-2)Gal(b1-3)GlcNAc6S
# Summary of the method: as §1
# [14] = target: Fuc(a1-2)Gal(b1-3)[Fuc(a1-4)]GlcNAc
# Summary of the method: as §1
# [15] = target: Fuc(a1-2)Gal(b1-3)[Fuc(a1-4)]GlcNAc(b1-2)Man(a1-3)[Fuc(a1-2)Gal(b1-3)[Fuc(a1-4)]GlcNAc(b1-2)Man(a1-3)]Man(b1-4)GlcNAc(b1-4)GlcNAc
# Summary of the method: as §1
# [16] = target: Fuc(a1-2)Gal(b1-3)[Fuc(a1-4)]GlcNAc(b1-2)Man(a1-3)[Fuc(a1-2)Gal(b1-3)[Fuc(a1-4)]GlcNAc(b1-2)Man(a1-6)]Man(b1-4)GlcNAc(b1-4)[Fuc(a1-6)]GlcNAc(b1-4)[Fuc(a1-6)]GlcNAc
# Summary of the method: as §1
# [17] = target: Fuc(a1-2)Gal(b1-3)[Fuc(a1-4)]GlcNAc(b1-3)[Fuc(a1-3)[Gal(b1-4)]GlcNAc(b1-6)]Gal(b1-4)Glc
# Summary of the method: as §1
# [18] = target: Fuc(a1-2)Gal(b1-3)[Fuc(a1-4)]GlcNAc(b1-3)[Gal(b1-4)GlcNAc(b1-6)]Gal(b1-4)Glc
# Summary of the method: as §1
# [19] = target: Fuc(a1-2)Gal(b1-4)Fuc(a1-3)]GlcNAc(b1-2)Man(a1-3)[Fuc(a1-2)Gal(b1-4)[Fuc(a1-3)]GlcNAc(b1-2)Man(a1-6)]Man(b1-4)GlcNAc(b1-4)GlcNAc
# Summary of the method: as §1
# Fuc(a1-2)Gal(b1-4)Glc = target: Fuc(a1-2)Gal(b1-4)Glc
# Summary of the method: as §1
# Fuc(a1-2)Gal(b1-4)Glc6S = target: Fuc(a1-2)Gal(b1-4)Glc6S
# Summary of the method: as §1
# Fuc(a1-2)Gal(b1-4)GlcNAc = target: Fuc(a1-2)Gal(b1-4)GlcNAc
# Summary of the method: as §1
# [20] = target: Fuc(a1-2)Gal(b1-4)GlcNAc(b1-2)Man
# Summary of the method: as §1
# [21] = target: Fuc(a1-2)Gal(b1-4)GlcNAc(b1-2)Man(a1-3)[Fuc(a1-2)Gal(b1-4)GlcNAc(b1-2)Man(a1-6)]Man(b1-4)GlcNAc(b1-4)GlcNAc
# Summary of the method: as §1
# [22] = target: Fuc(a1-2)Gal(b1-4)GlcNAc(b1-2)Man(a1-3)[Fuc(a1-2)Gal(b1-4)GlcNAc(b1-2)Man(a1-6)]Man(b1-4)GlcNAc(b1-4)[Fuc(a1-6)]GlcNAc
# Summary of the method: as §1
# [23] = target: Fuc(a1-2)Gal(b1-4)GlcNAc(b1-2)[Fuc(a1-2)Gal(b1-4)GlcNAc(b1-4)]Man(a1-3)[Fuc(a1-2)Gal(b1-4)GlcNAc(b1-2)Man(a1-6)]Man(b1-4)GlcNAc(b1-4)GlcNAc
# Summary of the method: as §1
# [24] = target: Fuc(a1-2)Gal(b1-4)GlcNAc(b1-3)Gal(b1-4)GlcNAc
# Summary of the method: as §1
# [25] = target: Fuc(a1-2)Gal(b1-4)GlcNAc(b1-3)Gal(b1-4)GlcNAc(b1-2)Man(a1-3)[Fuc(a1-2)Gal(b1-4)GlcNAc(b1-3)Gal(b1-4)GlcNAc(b1-2)Man(a1-6)]Man(b1-4)GlcNAc(b1-4)GlcNAc
# Summary of the method: as §1
# [26] = target: Fuc(a1-2)Gal(b1-4)GlcNAc(b1-3)Gal(b1-4)GlcNAc(b1-3)Gal(b1-4)GlcNAc
# Summary of the method: as §1
# [27] = target: Fuc(a1-2)Gal(b1-4)GlcNAc(b1-3)GalNAc
# Summary of the method: as §1
# [28] = target: Fuc(a1-2)Gal(b1-4)GlcNAc(b1-3)[Fuc(a1-2)Gal(b1-4)GlcNAc(b1-6)]GalNAc
# Summary of the method: as §1
# [29] = target: Fuc(a1-2)Gal(b1-4)GlcNAc(b1-3)[Fuc(a1-3)[Gal(b1-4)]GlcNAc(b1-6)]Gal(b1-4)Glc
# Summary of the method: as §1
# [30] = target: Fuc(a1-2)Gal(b1-4)GlcNAc(b1-6)GalNAc
# Summary of the method: as §1
# [31] = target: Fuc(a1-2)Gal(b1-4)GlcNAc6S
# Summary of the method: as §1
# [32] = target: Fuc(a1-2)Gal(b1-4)[Fuc(a1-3)]GlcNAc
# Summary of the method: as §1
# [33] = target: Fuc(a1-2)Gal(b1-4)[Fuc(a1-3)]GlcNAc(b1-2)Man(a1-3)[Fuc(a1-2)Gal(b1-4)[Fuc(a1-3)]GlcNAc(b1-2)Man(a1-6)]Man(b1-4)GlcNAc(b1-4)[Fuc(a1-6)]GlcNAc
# Summary of the method: as §1
# [34] = target: Fuc(a1-2)Gal(b1-4)[Fuc(a1-3)]GlcNAc(b1-2)[Fuc(a1-2)Gal(b1-4)[Fuc(a1-3)]GlcNAc(b1-4)]Man(a1-3)[Fuc(a1-2)Gal(b1-4)[Fuc(a1-3)]GlcNAc(b1-2)Man(a1-6)]Man(b1-4)GlcNAc(b1-4)GlcNAc
# Summary of the method: as §1
# [35] = target: Fuc(a1-2)Gal(b1-4)[Fuc(a1-3)]GlcNAc(b1-3)Gal(b1-4)[Fuc(a1-3)]GlcNAc
# Summary of the method: as §1
# [36] = target: Fuc(a1-2)Gal(b1-4)[Fuc(a1-3)]GlcNAc(b1-3)Gal(b1-4)[Fuc(a1-3)]GlcNAc(b1-3)Gal(b1-4)[Fuc(a1-3)]GlcNAc
# Summary of the method: as §1
# [37] = target: Fuc(a1-2)Gal(b1-4)[Fuc(a1-3)]GlcNAc(b1-3)GalNAc
# Summary of the method: as §1
# [38] = target: Fuc(a1-2)Gal(b1-4)[Fuc(a1-3)]GlcNAc(b1-3)[Neu5Ac(a2-6)Gal(b1-4)GlcNAc(b1-6)]Gal(b1-4)Glc
# Summary of the method: as §1
# [39] = target: Fuc(a1-2)Gal3S(b1-4)GlcNAc
# Summary of the method: as §1
binder,measurement,setting,value
B1,glycan array binding signal (z-score),Fuc(a1-2)Gal,-0.237
same,glycan array binding signal (z-score),Fuc(a1-2)Gal(b1-3)GalNAc,-1.01
same,glycan array binding signal (z-score),[1],-1.36
same,glycan array binding signal (z-score),[2],0.386
same,glycan array binding signal (z-score),[3],-0.226
same,glycan array binding signal (z-score),[4],-0.103
same,glycan array binding signal (z-score),[5],-0.018
same,glycan array binding signal (z-score),Fuc(a1-2)Gal(b1-3)GlcNAc,0.853
same,glycan array binding signal (z-score),[6],4.3
same,glycan array binding signal (z-score),[7],-0.556
same,glycan array binding signal (z-score),[8],-0.192
same,glycan array binding signal (z-score),[9],2.22
same,glycan array binding signal (z-score),[10],1.43
same,glycan array binding signal (z-score),[11],-1.36
same,glycan array binding signal (z-score),[12],-0.594
same,glycan array binding signal (z-score),[13],0.841
same,glycan array binding signal (z-score),[14],-1.12
same,glycan array binding signal (z-score),[15],0.146
same,glycan array binding signal (z-score),[16],0.424
same,glycan array binding signal (z-score),[17],0.881
same,glycan array binding signal (z-score),[18],0.781
same,glycan array binding signal (z-score),[19],-0.715
same,glycan array binding signal (z-score),Fuc(a1-2)Gal(b1-4)Glc,-0.946
same,glycan array binding signal (z-score),Fuc(a1-2)Gal(b1-4)Glc6S,-0.903
same,glycan array binding signal (z-score),Fuc(a1-2)Gal(b1-4)GlcNAc,-0.589
same,glycan array binding signal (z-score),[20],0.189
same,glycan array binding signal (z-score),[21],-0.809
same,glycan array binding signal (z-score),[22],-0.607
same,glycan array binding signal (z-score),[23],-0.493
same,glycan array binding signal (z-score),[24],-1.37
same,glycan array binding signal (z-score),[25],1.84
same,glycan array binding signal (z-score),[26],-0.768
same,glycan array binding signal (z-score),[27],-0.128
same,glycan array binding signal (z-score),[28],-0.514
same,glycan array binding signal (z-score),[29],-0.523
same,glycan array binding signal (z-score),[30],2.2
same,glycan array binding signal (z-score),[31],-1.02
same,glycan array binding signal (z-score),[32],0.152
same,glycan array binding signal (z-score),[33],0.936
same,glycan array binding signal (z-score),[34],3.02
same,glycan array binding signal (z-score),[35],-0.08
same,glycan array binding signal (z-score),[36],2.95
same,glycan array binding signal (z-score),[37],2.2
same,glycan array binding signal (z-score),[38],0.974
same,glycan array binding signal (z-score),[39],0.542

# Some of the entries above in another layout:
binder	measurement	setting	value
B1	glycan array binding signal (z-score)	[9]	2.22
same	glycan array binding signal (z-score)	[31]	-1.02
